Laboratory results published in article PMC12574921.
No constants are given. Whether binding was seen depends on the method and setting. Binding seen in cells or lysates may run through a third protein. A result given as binding can be weak or reduced; the word gives no strength. For some assays here: Sequences can lack the tags named with a protein. One block for each molecule: values may come before it.

By UniProt entry, the sequences of proteins in these tests, tags left out. Where a name states a change or a piece, a line headed by the entry shows the natural chain unless it says otherwise.
UniProt Q9VP77: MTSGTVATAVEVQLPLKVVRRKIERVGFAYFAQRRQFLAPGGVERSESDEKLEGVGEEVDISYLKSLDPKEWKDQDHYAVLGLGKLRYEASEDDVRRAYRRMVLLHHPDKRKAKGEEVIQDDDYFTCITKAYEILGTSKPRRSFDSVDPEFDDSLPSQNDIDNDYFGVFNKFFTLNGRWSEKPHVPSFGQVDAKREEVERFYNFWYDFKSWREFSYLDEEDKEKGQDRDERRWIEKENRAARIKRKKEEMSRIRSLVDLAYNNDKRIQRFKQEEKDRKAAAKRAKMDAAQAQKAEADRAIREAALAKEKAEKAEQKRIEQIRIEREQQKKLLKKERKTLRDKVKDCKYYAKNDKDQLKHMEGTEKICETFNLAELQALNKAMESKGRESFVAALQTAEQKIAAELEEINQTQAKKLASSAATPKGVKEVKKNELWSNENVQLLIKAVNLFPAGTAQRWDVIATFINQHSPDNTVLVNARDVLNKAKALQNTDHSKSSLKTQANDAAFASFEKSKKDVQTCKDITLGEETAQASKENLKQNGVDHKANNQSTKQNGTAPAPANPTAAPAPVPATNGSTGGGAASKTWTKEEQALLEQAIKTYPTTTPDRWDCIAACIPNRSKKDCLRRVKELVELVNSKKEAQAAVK
UniProt P19109: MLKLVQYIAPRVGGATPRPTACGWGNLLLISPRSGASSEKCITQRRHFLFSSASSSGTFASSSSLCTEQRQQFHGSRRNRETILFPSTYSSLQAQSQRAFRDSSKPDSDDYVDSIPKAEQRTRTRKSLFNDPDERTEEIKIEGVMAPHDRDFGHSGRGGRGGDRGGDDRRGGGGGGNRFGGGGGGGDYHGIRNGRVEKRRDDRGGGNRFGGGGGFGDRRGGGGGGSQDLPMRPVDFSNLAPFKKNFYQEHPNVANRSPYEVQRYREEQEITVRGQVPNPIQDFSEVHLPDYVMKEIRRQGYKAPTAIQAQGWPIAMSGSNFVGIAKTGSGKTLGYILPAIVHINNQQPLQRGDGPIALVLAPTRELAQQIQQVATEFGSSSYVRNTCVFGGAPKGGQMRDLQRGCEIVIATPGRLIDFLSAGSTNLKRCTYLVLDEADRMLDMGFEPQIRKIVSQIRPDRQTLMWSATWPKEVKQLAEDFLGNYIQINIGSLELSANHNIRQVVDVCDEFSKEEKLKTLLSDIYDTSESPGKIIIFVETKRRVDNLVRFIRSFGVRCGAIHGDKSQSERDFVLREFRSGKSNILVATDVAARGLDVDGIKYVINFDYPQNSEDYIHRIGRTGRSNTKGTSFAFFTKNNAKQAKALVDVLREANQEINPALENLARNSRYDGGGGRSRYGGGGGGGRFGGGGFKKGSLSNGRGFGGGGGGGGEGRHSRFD
UniProt P11147: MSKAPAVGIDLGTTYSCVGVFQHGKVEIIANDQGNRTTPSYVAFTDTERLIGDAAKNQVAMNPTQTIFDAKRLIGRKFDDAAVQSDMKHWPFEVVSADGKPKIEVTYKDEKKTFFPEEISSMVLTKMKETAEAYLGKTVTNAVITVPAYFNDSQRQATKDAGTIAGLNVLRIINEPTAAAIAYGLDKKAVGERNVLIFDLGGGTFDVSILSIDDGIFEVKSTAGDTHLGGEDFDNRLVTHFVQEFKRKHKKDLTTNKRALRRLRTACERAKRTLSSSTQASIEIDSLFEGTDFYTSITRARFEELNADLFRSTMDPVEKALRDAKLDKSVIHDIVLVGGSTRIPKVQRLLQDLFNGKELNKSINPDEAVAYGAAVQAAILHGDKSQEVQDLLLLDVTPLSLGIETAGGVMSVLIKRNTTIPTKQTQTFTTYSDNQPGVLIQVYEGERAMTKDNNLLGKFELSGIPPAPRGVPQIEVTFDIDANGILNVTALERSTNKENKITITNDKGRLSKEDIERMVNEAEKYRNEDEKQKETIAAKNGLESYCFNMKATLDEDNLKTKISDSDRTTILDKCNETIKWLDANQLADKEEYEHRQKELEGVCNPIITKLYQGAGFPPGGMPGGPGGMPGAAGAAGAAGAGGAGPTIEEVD
UniProt Q9VSI1: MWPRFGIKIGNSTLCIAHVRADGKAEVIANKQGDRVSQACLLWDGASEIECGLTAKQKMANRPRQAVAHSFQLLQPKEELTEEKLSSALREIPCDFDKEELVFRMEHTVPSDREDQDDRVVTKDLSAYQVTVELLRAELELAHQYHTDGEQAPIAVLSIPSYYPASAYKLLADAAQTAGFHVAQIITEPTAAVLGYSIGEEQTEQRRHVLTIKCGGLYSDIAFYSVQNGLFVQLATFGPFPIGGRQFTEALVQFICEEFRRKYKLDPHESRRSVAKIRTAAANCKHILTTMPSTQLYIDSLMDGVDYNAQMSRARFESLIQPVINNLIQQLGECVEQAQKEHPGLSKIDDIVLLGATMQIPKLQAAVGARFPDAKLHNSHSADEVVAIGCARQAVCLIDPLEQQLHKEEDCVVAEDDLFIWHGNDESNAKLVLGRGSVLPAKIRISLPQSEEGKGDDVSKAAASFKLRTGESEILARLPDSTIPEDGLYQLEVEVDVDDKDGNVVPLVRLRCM
UniProt Q9VUH8: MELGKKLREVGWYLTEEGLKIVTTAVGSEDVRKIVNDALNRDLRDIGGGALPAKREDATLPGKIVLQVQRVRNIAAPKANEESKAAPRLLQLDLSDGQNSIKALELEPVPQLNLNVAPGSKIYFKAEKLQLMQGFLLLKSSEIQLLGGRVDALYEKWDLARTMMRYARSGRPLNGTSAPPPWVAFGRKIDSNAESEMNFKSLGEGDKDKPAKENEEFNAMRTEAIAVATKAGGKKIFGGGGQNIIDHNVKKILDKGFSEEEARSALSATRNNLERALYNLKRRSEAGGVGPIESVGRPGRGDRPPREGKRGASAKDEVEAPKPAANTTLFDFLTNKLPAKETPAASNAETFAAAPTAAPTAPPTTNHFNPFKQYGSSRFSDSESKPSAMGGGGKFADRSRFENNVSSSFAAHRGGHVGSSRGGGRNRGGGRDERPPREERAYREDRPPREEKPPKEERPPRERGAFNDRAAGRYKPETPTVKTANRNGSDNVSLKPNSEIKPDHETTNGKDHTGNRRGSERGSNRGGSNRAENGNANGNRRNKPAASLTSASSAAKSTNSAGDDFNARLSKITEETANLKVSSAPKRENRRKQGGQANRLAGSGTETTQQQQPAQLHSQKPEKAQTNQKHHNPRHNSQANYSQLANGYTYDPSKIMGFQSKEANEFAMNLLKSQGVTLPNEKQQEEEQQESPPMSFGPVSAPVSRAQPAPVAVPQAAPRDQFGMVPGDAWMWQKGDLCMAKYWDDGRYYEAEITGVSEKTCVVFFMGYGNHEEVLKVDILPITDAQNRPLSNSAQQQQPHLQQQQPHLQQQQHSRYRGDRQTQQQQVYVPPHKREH
UniProt Q9V426: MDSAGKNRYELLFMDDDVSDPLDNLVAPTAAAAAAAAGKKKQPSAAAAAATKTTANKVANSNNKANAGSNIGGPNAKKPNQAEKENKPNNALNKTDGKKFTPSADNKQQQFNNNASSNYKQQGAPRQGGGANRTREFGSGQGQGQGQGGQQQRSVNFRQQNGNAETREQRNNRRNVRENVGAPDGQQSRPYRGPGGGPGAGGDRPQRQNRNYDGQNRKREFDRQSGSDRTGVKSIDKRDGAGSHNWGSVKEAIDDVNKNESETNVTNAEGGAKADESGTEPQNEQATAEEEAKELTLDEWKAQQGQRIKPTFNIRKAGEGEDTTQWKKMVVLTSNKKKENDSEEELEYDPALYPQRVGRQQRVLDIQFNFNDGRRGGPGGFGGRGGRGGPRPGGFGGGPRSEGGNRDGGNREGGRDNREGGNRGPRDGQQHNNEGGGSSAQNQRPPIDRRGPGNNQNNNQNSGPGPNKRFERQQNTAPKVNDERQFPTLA

Assays:
GFP-Zrf1 (Drosophila) [1] = molecular target: GFP-Zrf1 (Drosophila) (UniProt Q9VP77); experiment: co-IP; Zrf1 immunoprecipitate blotted with antibodies against endogenous RISC components
GFP-Rm62 (Drosophila) = GFP-Rm62 (Drosophila) (UniProt P19109); experiment: co-IP; S2R+ cells transfected with Zrf1-3xHA and N-terminal-GFP-tagged candidates; immunoprecipitation with anti-GFP, immunoblot with anti-HA
GFP-Hsc70-4 (Drosophila) = GFP-Hsc70-4 (Drosophila) (UniProt P11147); experiment: as above
GFP-CG8635 (Drosophila) = molecular target: T1, GFP-CG8635 (Drosophila) (UniProt Q7JWR9); experiment: as above
T1 sequence: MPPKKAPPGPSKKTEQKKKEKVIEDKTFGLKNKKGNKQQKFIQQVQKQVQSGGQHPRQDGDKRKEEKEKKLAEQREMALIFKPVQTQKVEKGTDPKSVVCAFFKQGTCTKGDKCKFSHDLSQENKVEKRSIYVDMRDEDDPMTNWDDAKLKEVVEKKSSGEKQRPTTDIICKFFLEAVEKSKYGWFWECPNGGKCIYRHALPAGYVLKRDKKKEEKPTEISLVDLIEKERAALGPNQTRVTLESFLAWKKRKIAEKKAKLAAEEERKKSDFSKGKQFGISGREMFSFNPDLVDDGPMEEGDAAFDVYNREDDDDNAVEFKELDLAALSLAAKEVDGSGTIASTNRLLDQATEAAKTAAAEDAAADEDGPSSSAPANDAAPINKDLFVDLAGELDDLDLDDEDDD

GFP-128up (Drosophila) = molecular target: T2, GFP-128up (Drosophila) (UniProt P32234); experiment: as above
T2 sequence: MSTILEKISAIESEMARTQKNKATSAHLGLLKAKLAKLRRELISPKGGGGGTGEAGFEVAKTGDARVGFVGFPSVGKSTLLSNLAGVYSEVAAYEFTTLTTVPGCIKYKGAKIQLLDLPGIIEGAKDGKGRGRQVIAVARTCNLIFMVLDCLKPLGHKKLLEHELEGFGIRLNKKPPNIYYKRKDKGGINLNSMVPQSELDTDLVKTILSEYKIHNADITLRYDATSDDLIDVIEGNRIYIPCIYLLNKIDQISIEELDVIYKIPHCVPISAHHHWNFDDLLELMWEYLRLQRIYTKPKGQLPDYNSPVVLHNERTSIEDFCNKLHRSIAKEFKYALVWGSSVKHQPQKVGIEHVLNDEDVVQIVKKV

GFP-FDY (Drosophila) = experiment: as above
GFP-penguin (Drosophila) = molecular target: T3, GFP-penguin (Drosophila) (UniProt O61345); experiment: as above
T3 sequence: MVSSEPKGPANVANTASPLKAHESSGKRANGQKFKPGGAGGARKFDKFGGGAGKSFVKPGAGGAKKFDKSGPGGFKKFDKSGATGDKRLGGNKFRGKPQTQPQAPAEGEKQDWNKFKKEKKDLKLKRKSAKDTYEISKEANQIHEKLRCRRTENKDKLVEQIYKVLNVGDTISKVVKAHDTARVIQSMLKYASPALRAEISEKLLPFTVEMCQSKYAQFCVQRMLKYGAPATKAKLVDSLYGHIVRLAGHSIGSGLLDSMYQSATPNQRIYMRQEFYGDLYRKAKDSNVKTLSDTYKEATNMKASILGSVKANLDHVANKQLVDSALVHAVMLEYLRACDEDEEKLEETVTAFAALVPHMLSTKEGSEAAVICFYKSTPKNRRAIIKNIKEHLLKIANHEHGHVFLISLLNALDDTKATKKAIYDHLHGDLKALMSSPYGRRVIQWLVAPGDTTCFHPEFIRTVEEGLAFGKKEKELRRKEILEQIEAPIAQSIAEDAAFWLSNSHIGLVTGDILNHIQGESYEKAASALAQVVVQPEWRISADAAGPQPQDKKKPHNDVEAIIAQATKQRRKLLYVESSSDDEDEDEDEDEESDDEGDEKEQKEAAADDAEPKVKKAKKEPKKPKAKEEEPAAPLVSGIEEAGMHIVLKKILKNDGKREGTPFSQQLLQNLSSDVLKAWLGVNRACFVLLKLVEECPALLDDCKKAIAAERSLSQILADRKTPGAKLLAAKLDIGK

GFP-mod (Drosophila) = molecular target: T4, GFP-mod (Drosophila) (UniProt P13469); experiment: as above
T4 sequence: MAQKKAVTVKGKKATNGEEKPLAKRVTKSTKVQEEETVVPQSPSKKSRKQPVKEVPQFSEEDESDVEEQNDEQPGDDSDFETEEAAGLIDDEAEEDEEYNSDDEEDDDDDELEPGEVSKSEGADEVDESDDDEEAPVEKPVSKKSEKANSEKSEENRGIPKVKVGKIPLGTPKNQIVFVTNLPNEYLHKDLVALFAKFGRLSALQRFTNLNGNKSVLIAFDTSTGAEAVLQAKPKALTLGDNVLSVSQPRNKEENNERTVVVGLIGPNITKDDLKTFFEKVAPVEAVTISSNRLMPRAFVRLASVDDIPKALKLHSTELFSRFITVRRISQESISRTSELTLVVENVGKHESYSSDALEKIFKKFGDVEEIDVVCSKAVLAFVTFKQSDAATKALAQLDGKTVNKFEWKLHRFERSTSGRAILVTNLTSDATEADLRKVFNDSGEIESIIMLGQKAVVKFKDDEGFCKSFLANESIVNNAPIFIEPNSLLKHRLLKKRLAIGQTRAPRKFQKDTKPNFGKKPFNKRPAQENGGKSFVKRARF

GFP-CG7182 (Drosophila) = GFP-CG7182 (Drosophila) (UniProt Q9VSI1); experiment: as above
GFP-Zrf1 (Drosophila) [2] = molecular target: GFP-Zrf1 (Drosophila) (UniProt Q9VP77); experiment: co-IP; reciprocal: S2R+ cells with GFP-Zrf1 and C-terminal-3xHA-tagged RISC components

- binding (GFP-Zrf1 (Drosophila) [1]): binds
Molecule: Tdrd3 (endogenous) (from UniProt Q9VUH8)

- binding (GFP-Zrf1 (Drosophila) [1]): binds
Molecule: Vig (endogenous) (from UniProt Q9V426)

- binding (GFP-Rm62 (Drosophila)): binds
- binding (GFP-Hsc70-4 (Drosophila)): binds
- binding (GFP-CG8635 (Drosophila)): binds
- binding (GFP-128up (Drosophila)): binds
- binding (GFP-FDY (Drosophila)): binds
- binding (GFP-penguin (Drosophila)): binds
- binding (GFP-mod (Drosophila)): binds
- binding (GFP-CG7182 (Drosophila)): binds
Molecule: Zrf1-3xHA (from UniProt Q9VP77)

- binding (GFP-Zrf1 (Drosophila) [2]): binds
Molecule: Rm62-3xHA (from UniProt P19109 1-719)

- binding (GFP-Zrf1 (Drosophila) [1]): binds
Molecule: Rm62 (endogenous) (from UniProt P19109 1-719)

- binding (GFP-Zrf1 (Drosophila) [2]): binds
B1: AGO2-3xHA (protein, UniProt Q9VUQ5 1-1214)
chain: MGKKDKNKKGGQDSAAAPQPQQQQKQQQQRQQQPQQLQQPQQLQQPQQLQQPQQQQQQQPHQQQQQSSRQQPSTSSGGSRASGFQQGGQQQKSQDAEGWTAQKKQGKQQVQGWTKQGQQGGHQQGRQGQDGGYQQRPPGQQQGGHQQGRQGQEGGYQQRPPGQQQGGHQQGRQGQEGGYQQRPSGQQQGGHQQGRQGQEGGYQQRPPGQQQGGHQQGRQGQEGGYQQRPSGQQQGGHQQGRQGQEGGYQQRPPGQQQGGHQQGRQGQEGGYQQRPPGQQQGGHEQGRQGQEGGYQQRPSGQQQGGHQQGRQGQEGGYQQRPSGQQQGGHQQGRQGQEGGYQQRPSGQQQGGHQQGRQGQEGGYQQRPPGQQPNQTQSQGQYQSRGPPQQQQAAPLPLPPQPAGSIKRGTIGKPGQVGINYLDLDLSKMPSVAYHYDVKIMPERPKKFYRQAFEQFRVDQLGGAVLAYDGKASCYSVDKLPLNSQNPEVTVTDRNGRTLRYTIEIKETGDSTIDLKSLTTYMNDRIFDKPMRAMQCVEVVLASPCHNKAIRVGRSFFKMSDPNNRHELDDGYEALVGLYQAFMLGDRPFLNVDISHKSFPISMPMIEYLERFSLKAKINNTTNLDYSRRFLEPFLRGINVVYTPPQSFQSAPRVYRVNGLSRAPASSETFEHDGKKVTIASYFHSRNYPLKFPQLHCLNVGSSIKSILLPIELCSIEEGQALNRKDGATQVANMIKYAATSTNVRKRKIMNLLQYFQHNLDPTISRFGIRIANDFIVVSTRVLSPPQVEYHSKRFTMVKNGSWRMDGMKFLEPKPKAHKCAVLYCDPRSGRKMNYTQLNDFGNLIISQGKAVNISLDSDVTYRPFTDDERSLDTIFADLKRSQHDLAIVIIPQFRISYDTIKQKAELQHGILTQCIKQFTVERKCNNQTIGNILLKINSKLNGINHKIKDDPRLPMMKNTMYIGADVTHPSPDQREIPSVVGVAASHDPYGASYNMQYRLQRGALEEIEDMFSITLEHLRVYKEYRNAYPDHIIYYRDGVSDGQFPKIKNEELRCIKQACDKVGCKPKICCVIVVKRHHTRFFPSGDVTTSNKFNNVDPGTVVDRTIVHPNEMQFFMVSHQAIQGTAKPTRYNVIENTGNLDIDLLQQLTYNLCHMFPRCNRSVSYPAPAYLAHLVAARGRVYLTGTNRFLDLKKEYAKRTIVPEFMKKNPMYFV

- binding (GFP-Zrf1 (Drosophila) [1]): binds
B2: AGO2 (endogenous) (protein, UniProt Q9VUQ5 1-1214)
chain: MGKKDKNKKGGQDSAAAPQPQQQQKQQQQRQQQPQQLQQPQQLQQPQQLQQPQQQQQQQPHQQQQQSSRQQPSTSSGGSRASGFQQGGQQQKSQDAEGWTAQKKQGKQQVQGWTKQGQQGGHQQGRQGQDGGYQQRPPGQQQGGHQQGRQGQEGGYQQRPPGQQQGGHQQGRQGQEGGYQQRPSGQQQGGHQQGRQGQEGGYQQRPPGQQQGGHQQGRQGQEGGYQQRPSGQQQGGHQQGRQGQEGGYQQRPPGQQQGGHQQGRQGQEGGYQQRPPGQQQGGHEQGRQGQEGGYQQRPSGQQQGGHQQGRQGQEGGYQQRPSGQQQGGHQQGRQGQEGGYQQRPSGQQQGGHQQGRQGQEGGYQQRPPGQQPNQTQSQGQYQSRGPPQQQQAAPLPLPPQPAGSIKRGTIGKPGQVGINYLDLDLSKMPSVAYHYDVKIMPERPKKFYRQAFEQFRVDQLGGAVLAYDGKASCYSVDKLPLNSQNPEVTVTDRNGRTLRYTIEIKETGDSTIDLKSLTTYMNDRIFDKPMRAMQCVEVVLASPCHNKAIRVGRSFFKMSDPNNRHELDDGYEALVGLYQAFMLGDRPFLNVDISHKSFPISMPMIEYLERFSLKAKINNTTNLDYSRRFLEPFLRGINVVYTPPQSFQSAPRVYRVNGLSRAPASSETFEHDGKKVTIASYFHSRNYPLKFPQLHCLNVGSSIKSILLPIELCSIEEGQALNRKDGATQVANMIKYAATSTNVRKRKIMNLLQYFQHNLDPTISRFGIRIANDFIVVSTRVLSPPQVEYHSKRFTMVKNGSWRMDGMKFLEPKPKAHKCAVLYCDPRSGRKMNYTQLNDFGNLIISQGKAVNISLDSDVTYRPFTDDERSLDTIFADLKRSQHDLAIVIIPQFRISYDTIKQKAELQHGILTQCIKQFTVERKCNNQTIGNILLKINSKLNGINHKIKDDPRLPMMKNTMYIGADVTHPSPDQREIPSVVGVAASHDPYGASYNMQYRLQRGALEEIEDMFSITLEHLRVYKEYRNAYPDHIIYYRDGVSDGQFPKIKNEELRCIKQACDKVGCKPKICCVIVVKRHHTRFFPSGDVTTSNKFNNVDPGTVVDRTIVHPNEMQFFMVSHQAIQGTAKPTRYNVIENTGNLDIDLLQQLTYNLCHMFPRCNRSVSYPAPAYLAHLVAARGRVYLTGTNRFLDLKKEYAKRTIVPEFMKKNPMYFV
